Data on 35 compounds can be found in PubChem BioAssay AID1487 (National Center for Advancing Translational Sciences (NCATS), 2009).

This experiment is described as follows: qHTS Assay for Modulators of Lamin A Splicing. The settings on record: HeLa LMNA splicing GFP/RFP minigene ratio, 48 h. Summed up:
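S3 HeLa stable clones carrying a lamin A-EGFP splicing minigene plus DsRed2 were seeded at 600 cells/well in Opti-MEM with 2% FBS, pin-dosed and incubated 48 h at 37°C. Acumen cytometry (488 nm) gave the GFP/RFP total-intensity ratio.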
(In general: Quantitative high-throughput screening tests each substance at several concentrations.)

The mark [1] stands for this setting: measured here: RFP viability control channel.
The mark [2] stands for this setting: measured here: GFP splicing reporter channel.

Some of the results follow. The main result of the screen is listed elsewhere. These columns were measured beside it and carry no call. Compounds called inactive in the main read-out are mostly missing here. Potencies come from curve fits of mixed quality, noted in brackets.

Regarding `Cc1ccc(CSc2ncnc3c2cnn3Cc2ccccc2)cc1C`, the AC50 (usually the midpoint of the concentration-response curve, whichever way the signal moves) under setting [1] is 35.5 µM [rising, single point].

Regarding `CC#CCN1c2ccccc2[C@]23C[C@@H](C(=O)OC)N(S(=O)(=O)c4ccc(C#N)cc4)C2=NC(C(=O)OC)=C(C(=O)OC)[C@H]13`, under setting [1], the half-maximal activity concentration (AC50) was 5.62 µM [rising, single point].

As to `CN(C)Cc1ccccc1-c1nc(NC2CCNCC2)c2ccccc2n1`, the AC50 is 11.2 µM [falling, partial curve] under setting [2] and 14.1 µM [falling, partial curve] under setting [1].

As to `CC(Nc1c([N+](=O)[O-])c(=O)oc2ccccc12)C(Cl)c1ccccc1` (stereo unspecified), the concentration at half-maximal activity (AC50) was 15.8 µM [falling, single point] under setting [2] and 31.6 µM [falling, single point] under setting [1].

Consider `CC1S/C(=N/N=C/c2ccco2)N(Cc2ccccc2)C1=O` (stereo unspecified), for which the concentration at half-maximal activity (AC50) under setting [1] is 15.8 µM [rising, single point].

Regarding `O=C(CN1C(=O)c2cccnc2Oc2ccc(Cl)cc21)Nc1cccc(C(F)(F)F)c1`, the AC50 reads like this: under setting [2], 11.2 µM [rising, partial curve]; under setting [1], 22.4 µM [rising, single point].

Take `CC(C)c1ccc(NC(=S)NC2CCCCCC2)cc1`: the AC50 reads like this: under setting [2], 35.5 µM [falling, single point]; under setting [1], 11.2 µM [falling, partial curve, poor fit].

Regarding `COc1ccccc1OCC(=O)Nc1oc(-c2ccccc2)c(-c2ccccc2)c1C#N`, the AC50 under setting [1] was 22.4 µM [rising, single point].

Consider `COc1ccc(-c2c(C(C)=O)c(C)nc3sc4c(=N)n(N)cnc4c23)cc1`, for which the concentration at half-maximal activity (AC50) is 12.6 µM [rising, single point] under setting [2] and 12.6 µM [rising, partial curve, poor fit] under setting [1].

In the case of `O=C(NNS(=O)(=O)c1ccc(Cl)cc1)c1cc(-c2ccccc2)nc2ccccc12`, the half-maximal activity concentration (AC50) under setting [1] is 22.4 µM [rising, partial curve].

For the compound `Cn1cc(-c2nc3cncnc3n(Cc3ccccc3Cl)c2=O)c2ccccc21`, the AC50 under setting [1] was 1.12 µM [falling, full curve].

Take `Cc1cc(C)n(C(C)CC(=O)Nc2ccc(C)c(N(C)C)c2)n1` (stereo unspecified): the AC50 under setting [1] is 0.0178 µM [falling, full curve, poor fit].

As to `COc1ccc(NC(=O)COC(=O)c2ncc(Cl)c(Cl)c2Cl)c(OC)c1`, under setting [1], the AC50 was 5.62 µM [rising, single point].

Consider `Fc1ccc(CNCc2ccccc2Cl)cc1`, for which the AC50 under setting [2] is 0.501 µM [falling, full curve, poor fit].

`O=C(NC1CCCC1)c1ccc2c(=O)n(Cc3ccccc3)c(SCc3cccc(F)c3)nc2c1`: the half-maximal activity concentration (AC50) under setting [1] was 0.0251 µM [falling, full curve, poor fit].

`CC(OC(=O)CNC(=O)c1ccccc1F)C(=O)Nc1nc(-c2ccccc2)cs1` (stereo unspecified): the AC50 was 3.55 µM [falling, partial curve, poor fit] under setting [2] and 4.47 µM [falling, partial curve, poor fit] under setting [1].

`CCCC[C@@H]1C[C@H]1[C@@H](NC(=O)c1ccco1)c1ccc(Cl)cc1`: under setting [1], the concentration at half-maximal activity (AC50) is 35.5 µM [rising, single point].

Take `CCCCC(=O)Nc1cccc(NC(=S)NC(=O)COc2ccccc2Cl)c1`: the half-maximal activity concentration (AC50) under setting [1] was 5.62 µM [rising, single point].

For `CCS(=O)(=O)c1ccc2oc(SCC(=O)Nc3ccc(OC)cc3OC)nc2c1`, the half-maximal activity concentration (AC50) under setting [2] was 5.62 µM [falling, single point] and the AC50 under setting [1] was 5.62 µM [falling, single point].

As to `CC1CCc2nc(N)c(C#N)c(-c3cccn3C)c2C1` (stereo unspecified), under setting [2], the AC50 was 12.6 µM [rising, single point].

For the compound `Cc1ccc(OCC(=O)Nc2ccc(N3CCN(C(=O)c4ccco4)CC3)cc2)cc1`, the AC50 under setting [2] was 22.4 µM [falling, single point].

In the case of `Cc1cc(NC(=O)CSc2nnc(-c3ccccc3)n2Cc2ccco2)no1`, the concentration at half-maximal activity (AC50) under setting [1] was 0.355 µM [falling, partial curve, poor fit].

Take `CSc1ccc(-c2nnc(NC(=O)c3ccc4c(c3)OCCO4)o2)cc1`: under setting [1], the AC50 was 35.5 µM [rising, single point].

Consider `O=c1c2ccccc2nnn1CSc1nnc(-c2ccc3c(c2)OCO3)o1`, for which, under setting [1], the half-maximal activity concentration (AC50) is 11.2 µM [rising, single point].

For the compound `COc1ccc(CCNC(=O)C(NS(=O)(=O)c2ccc3c(c2)CCN3C(C)=O)C(C)C)cc1OC` (stereo unspecified), the AC50 under setting [1] was 0.708 µM [falling, single point].

On to `CCC(CC)c1nnc(NC(=O)CCN2C(=O)c3ccccc3C2=O)s1`, for which, under setting [1], the AC50 was 0.891 µM [falling, full curve].

Regarding `COc1cccc(Nc2nc3ccccc3n2C(C)C)c1`, the AC50 under setting [1] is 0.00501 µM [falling, full curve, poor fit].

With `CCCC(=O)Nc1nc(C)c(-c2csc(Nc3cc(OC)ccc3OC)n2)s1`, the AC50 is, setting by setting: under setting [2], 12.6 µM [falling, single point]; under setting [1], 6.31 µM [falling, partial curve, poor fit].

For `CC(C)c1ccccc1-n1c(SCc2cc(=O)oc3ccc4ccccc4c23)nnc1-c1cccnc1`, under setting [1], the concentration at half-maximal activity (AC50) is 17.8 µM [rising, single point].

For `Cc1cc(C(=O)COC(=O)c2ccc(N)cc2)c(C)n1-c1c(C)n(C)n(-c2ccccc2)c1=O`, the concentration at half-maximal activity (AC50) runs as follows: under setting [2], 0.00708 µM [rising, full curve, poor fit]; under setting [1], 0.1 µM [rising, partial curve, poor fit].

In the case of `CC(=O)c1c(C)[nH]c(C(=O)OCn2nnc3ccccc3c2=O)c1C`, the AC50 runs as follows: under setting [2], 12.6 µM [rising, partial curve]; under setting [1], 14.1 µM [rising, partial curve].

For the compound `O=C(Cc1coc(-c2ccc(F)cc2)n1)Nc1ccccc1`, under setting [1], the concentration at half-maximal activity (AC50) was 35.5 µM [rising, single point].

For `COc1ccc(SCC(=O)Nc2ccc(N3CCN(C)CC3)c(F)c2)cc1`, the AC50 under setting [1] was 0.316 µM [falling, full curve].

For `CC(C)CCNC(=O)Cc1c(C(=O)O)[nH]c2ccc(Cl)cc12`, the AC50 by setting is: under setting [2], 2.51 µM [rising, partial curve, poor fit]; under setting [1], 5.01 µM [rising, partial curve, poor fit].

`CCN(CC)C(=O)/C(=C/c1ccc2c(c1)OCO2)NC(=O)c1ccc(Br)cc1`: the AC50 under setting [1] was 20 µM [rising, partial curve, poor fit].
